According to paper PMC4636271:
Results are given in words; binding and its absence hold for the method and conditions named. In cells and extracts the contact can be indirect. A yes stands for co-enrichment or nearness to the bait. Other partners may have been found. For some assays here: A no says only that the protein was not detected with the bait.

Chains of the proteins cited; added tags and fusions are not shown.
UniProt Q15046: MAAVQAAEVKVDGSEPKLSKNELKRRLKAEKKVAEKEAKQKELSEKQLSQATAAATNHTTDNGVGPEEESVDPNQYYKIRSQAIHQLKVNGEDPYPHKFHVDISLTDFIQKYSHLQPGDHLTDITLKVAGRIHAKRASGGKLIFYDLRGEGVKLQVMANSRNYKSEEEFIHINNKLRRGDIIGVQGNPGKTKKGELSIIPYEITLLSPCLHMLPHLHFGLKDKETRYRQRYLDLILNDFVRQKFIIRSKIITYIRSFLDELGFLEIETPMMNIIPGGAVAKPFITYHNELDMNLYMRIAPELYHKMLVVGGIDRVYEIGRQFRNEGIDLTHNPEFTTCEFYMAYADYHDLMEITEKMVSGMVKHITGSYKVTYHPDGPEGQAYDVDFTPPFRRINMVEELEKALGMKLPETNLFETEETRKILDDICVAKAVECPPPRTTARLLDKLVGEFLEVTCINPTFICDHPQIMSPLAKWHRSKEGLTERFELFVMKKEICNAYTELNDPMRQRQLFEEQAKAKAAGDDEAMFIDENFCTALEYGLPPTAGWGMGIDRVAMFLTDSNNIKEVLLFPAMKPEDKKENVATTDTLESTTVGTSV

What was measured:
[1] = target: lysyl-tRNA synthetase (KARS) tagged with S/FLAG/SBP (UniProt Q15046); test: affinity purification with mass spectrometry; S/FLAG/SBP-KARS in lysate (2 mg) of transfected HEK 293T cells held on streptavidin agarose, NETN buffer (20 mM Tris-HCl pH 7.5, 1 mM EDTA, 150 mM NaCl, 0.1% NP-40), 2 h, 4°C, three washes, eluted with 0.82 mM biotin; eluate fractionated by SEC (Superdex 200, PBS) and each fraction read by MRM-MS
[2] = target: lysyl-tRNA synthetase (KARS) tagged with S/FLAG/SBP, Q15046; test: as above; conditions: remark: other sources report otherwise

| Binder | binding [1] | binding [2] |
| --- | --- | --- |
| HARS (enzyme, UniProt P12081 1-509) MAERAALEELVKLQGERVRGLKQQKASAELIEEEVAKLLKLKAQLGPDESKQKFVLKTPKGTRDYSPRQMAVREKVFDVIIRCFKRHGAEVIDTPVFELKETLMGKYGEDSKLIYDLKDQGGELLSLRYDLTVPFARYLAMNKLTNIKRYHIAKVYRRDNPAMTRGRYREFYQCDFDIAGNFDPMIPDAECLKIMCEILSSLQIGDFLVKVNDRRILDGMFAICGVSDSKFRTICSSVDKLDKVSWEEVKNEMVGEKGLAPEVADRIGDYVQQHGGVSLVEQLLQDPKLSQNKQALEGLGDLKLLFEYLTLFGIDDKISFDLSLARGLDYYTGVIYEAVLLQTPAQAGEEPLGVGSVAAGGRYDGLVGMFDPKGRKVPCVGLSIGVERIFSIVEQRLEALEEKIRTTETQVLVASAQKKLLEERLKLVSELWDAGIKAELLYKKNPKLLNQLQYCEEAGIPLVAIIGEQELKDGVIKLRSVTSREEVDVRREDLVEEIKRRTGQPLCIC | no binding |  |
| NARS (enzyme, UniProt O43776 1-548) MVLAELYVSDREGSDATGDGTKEKPFKTGLKALMTVGKEPFPTIYVDSQKENERWNVISKSQLKNIKKMWHREQMKSESREKKEAEDSLRREKNLEEAKKITIKNDPSLPEPKCVKIGALEGYRGQRVKVFGWVHRLRRQGKNLMFLVLRDGTGYLQCVLADELCQCYNGVLLSTESSVAVYGMLNLTPKGKQAPGGHELSCDFWELIGLAPAGGADNLINEESDVDVQLNNRHMMIRGENMSKILKARSMVTRCFRDHFFDRGYYEVTPPTLVQTQVEGGATLFKLDYFGEEAFLTQSSQLYLETCLPALGDVFCIAQSYRAEQSRTRRHLAEYTHVEAECPFLTFDDLLNRLEDLVCDVVDRILKSPAGSIVHELNPNFQPPKRPFKRMNYSDAIVWLKEHDVKKEDGTFYEFGEDIPEAPERLMTDTINEPILLCRFPVEIKSFYMQRCPEDSRLTESVDVLMPNVGEIVGGSMRIFDSEEILAGYKREGIDPTPYYWYTDQRKYGTCPHGGYGLGLERFLTWILNRYHIRDVCLYPRFVQRCTP | no binding |  |
| threonyl-tRNA synthetase like protein 2 (TARSL2), A2RTX5 1-802 (protein) MAAEALAAEAVASRLERQEEDIRWLWSEVERLRDEQLNAPYSCQAEGPCLTREVAQLRAENCDLRHRLCSLRLCLAEERSRQATLESAELEAAQEAGAQPPPSQSQDKDMKKKKMKESEADSEVKHQPIFIKERLKLFEILKKDHQLLLAIYGKKGDTSNIITVRVADGQTVQGEVWKTTPYQVAAEISQELAESTVIAKVNGELWDLDRPLEGDSSLELLTFDNEEAQAVYWHSSAHILGEAMELYYGGHLCYGPPIENGFYYDMFIEDRAVSSTELSALENICKAIIKEKQPFERLEVSKEILLEMFKYNKFKCRILNEKVNTATTTVYRCGPLIDLCKGPHVRHTGKIKTIKIFKNSSTYWEGNPEMETLQRIYGISFPDNKMMRDWEKFQEEAKNRDHRKIGKEQELFFFHDLSPGSCFFLPRGAFIYNTLTDFIREEYHKRDFTEVLSPNMYNSKLWEASGHWQHYSENMFTFEIEKDTFALKPMNCPGHCLMFAHRPRSWREMPIRFADFGVLHRNELSGTLSGLTRVRRFQQDDAHIFCTVEQIEEEIKGCLQFLQSVYSTFGFSFQLNLSTRPENFLGEIEMWNEAEKQLQNSLMDFGEPWKMNPGDGAFYGPKIDIKIKDAIGRYHQCATIQLDFQLPIRFNLTYVSKDGDDKKRPVIIHRAILGSVERMIAILSENYGGKWPFWLSPRQVMVIPVGPTCEKYALQVSSEFFEEGFMADVDLDHSCTLNKKIRNAQLAQYNFILVVGEKEKIDNAVNVRTRDNKIHGEILVTSAIDKLKNLRKTRTLNAEEAF |  | binds |

Results, then the binder that gave them:

| binding [1] | binding [2] | Binder |
| --- | --- | --- |
|  | binds | RARS, P54136 1-660 (enzyme) MDVLVSECSARLLQQEEEIKSLTAEIDRLKNCGCLGASPNLEQLQEENLKLKYRLNILRKSLQAERNKPTKNMINIISRLQEVFGHAIKAAYPDLENPPLLVTPSQQAKFGDYQCNSAMGISQMLKTKEQKVNPREIAENITKHLPDNECIEKVEIAGPGFINVHLRKDFVSEQLTSLLVNGVQLPALGENKKVIVDFSSPNIAKEMHVGHLRSTIIGESISRLFEFAGYDVLRLNHVGDWGTQFGMLIAHLQDKFPDYLTVSPPIGDLQVFYKESKKRFDTEEEFKKRAYQCVVLLQGKNPDITKAWKLICDVSRQELNKIYDALDVSLIERGESFYQDRMNDIVKEFEDRGFVQVDDGRKIVFVPGCSIPLTIVKSDGGYTYDTSDLAAIKQRLFEEKADMIIYVVDNGQSVHFQTIFAAAQMIGWYDPKVTRVFHAGFGVVLGEDKKKFKTRSGETVRLMDLLGEGLKRSMDKLKEKERDKVLTAEELNAAQTSVAYGCIKYADLSHNRLNDYIFSFDKMLDDRGNTAAYLLYAFTRIRSIARLANIDEEMLQKAARETKILLDHEKEWKLGRCILRFPEILQKILDDLFLHTLCDYIYELATAFTEFYDSCYCVEKDRQTGKILKVNMWRMLLCEAVAAVMAKGFDILGIKPVQRM |
|  | binds | DARS, P14868 1-501 (enzyme) MPSASASRKSQEKPREIMDAAEDYAKERYGISSMIQSQEKPDRVLVRVRDLTIQKADEVVWVRARVHTSRAKGKQCFLVLRQQQFNVQALVAVGDHASKQMVKFAANINKESIVDVEGVVRKVNQKIGSCTQQDVELHVQKIYVISLAEPRLPLQLDDAVRPEAEGEEEGRATVNQDTRLDNRVIDLRTSTSQAVFRLQSGICHLFRETLINKGFVEIQTPKIISAASEGGANVFTVSYFKNNAYLAQSPQLYKQMCICADFEKVFSIGPVFRAEDSNTHRHLTEFVGLDIEMAFNYHYHEVMEEIADTMVQIFKGLQERFQTEIQTVNKQFPCEPFKFLEPTLRLEYCEALAMLREAGVEMGDEDDLSTPNEKLLGHLVKEKYDTDFYILDKYPLAVRPFYTMPDPRNPKQSNSYDMFMRGEEILSGAQRIHDPQLLTERALHHGIDLEKIKAYIDSFRFGAPPHAGGGIGLERVTMLFLGLHNVRQTSMFPRDPKRLTP |
